Consider six substances from US20170215422A1 (priority 2012, published 2017).

This data set in a line: peptide synthesis. As to conditions: for cyclisation yield: cyclisation step, head-to-tail ring, sequence written open; for step yield: coupling step.

“Cycro(-N-Me-L-Gly-(R)-Hep-N-Me-L-Gly-(R)-Hep-N-Me-L-Leu-(R)-Hep-N-Me-L-Leu-(R)-Hep-)” registered a cyclisation yield of 67%.

As for “Cycro(-N-Me-L-Gly-(R)-Oct-N-Me-L-Ala-(R)Hep-N-Me-L-Ala-(R)-Hep-N-Me-L-Ala-(R)-Hep-)”, the cyclisation yield is 75%.

In the case of “N-Boc-N-Me-L-Ala-(R)-Hep-N-Me-L-Ala-(R)-Hep(OBn)”, the step yield worked out at 96%.

On to “N-Boc-N-Me-L-Ala-(R)-Hep-N-Me-L-Ala-(R)-Hep-N-Me-L-Ala-(R)-Hep(OBn)”, for which the step yield was 83%.

The substance “N-Boc-N-Me-L-Gly-(R)-Hep-N-Me-L-Gly-(R)-Hep-N-Me-L-Leu-(R)-Hep-N-Me-L-Leu-(R)-Hep(OBn)” yielded a step yield of 71%.

“N-Boc-N-Me-L-Nle-(R)-Nna-N-Me-L-Ala-(R)-Hep-N-Me-L-Ala-(R)-Hep-N-Me-L-Ala-(R)-Hep(OBn)” showed a step yield of 91%.
